Results are given in words; binding and its absence hold for the method and conditions named. Binding seen in cells or lysates may run through a third protein. Some entries that bind do so weakly or less than the wild type.

Sequences of proteins named here, by UniProt entry; tags and fusion partners are left off.
UniProt Q9NRC8: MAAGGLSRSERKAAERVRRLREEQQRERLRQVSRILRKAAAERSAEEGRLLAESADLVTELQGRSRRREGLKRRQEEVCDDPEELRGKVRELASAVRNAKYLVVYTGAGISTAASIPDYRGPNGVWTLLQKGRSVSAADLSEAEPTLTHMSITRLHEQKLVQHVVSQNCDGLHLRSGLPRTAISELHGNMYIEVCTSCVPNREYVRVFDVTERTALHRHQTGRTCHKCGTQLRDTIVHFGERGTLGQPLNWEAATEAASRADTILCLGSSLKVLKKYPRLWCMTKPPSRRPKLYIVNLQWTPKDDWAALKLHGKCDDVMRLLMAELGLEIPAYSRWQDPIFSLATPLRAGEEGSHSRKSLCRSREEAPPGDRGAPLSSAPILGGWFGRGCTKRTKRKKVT
UniProt P09874: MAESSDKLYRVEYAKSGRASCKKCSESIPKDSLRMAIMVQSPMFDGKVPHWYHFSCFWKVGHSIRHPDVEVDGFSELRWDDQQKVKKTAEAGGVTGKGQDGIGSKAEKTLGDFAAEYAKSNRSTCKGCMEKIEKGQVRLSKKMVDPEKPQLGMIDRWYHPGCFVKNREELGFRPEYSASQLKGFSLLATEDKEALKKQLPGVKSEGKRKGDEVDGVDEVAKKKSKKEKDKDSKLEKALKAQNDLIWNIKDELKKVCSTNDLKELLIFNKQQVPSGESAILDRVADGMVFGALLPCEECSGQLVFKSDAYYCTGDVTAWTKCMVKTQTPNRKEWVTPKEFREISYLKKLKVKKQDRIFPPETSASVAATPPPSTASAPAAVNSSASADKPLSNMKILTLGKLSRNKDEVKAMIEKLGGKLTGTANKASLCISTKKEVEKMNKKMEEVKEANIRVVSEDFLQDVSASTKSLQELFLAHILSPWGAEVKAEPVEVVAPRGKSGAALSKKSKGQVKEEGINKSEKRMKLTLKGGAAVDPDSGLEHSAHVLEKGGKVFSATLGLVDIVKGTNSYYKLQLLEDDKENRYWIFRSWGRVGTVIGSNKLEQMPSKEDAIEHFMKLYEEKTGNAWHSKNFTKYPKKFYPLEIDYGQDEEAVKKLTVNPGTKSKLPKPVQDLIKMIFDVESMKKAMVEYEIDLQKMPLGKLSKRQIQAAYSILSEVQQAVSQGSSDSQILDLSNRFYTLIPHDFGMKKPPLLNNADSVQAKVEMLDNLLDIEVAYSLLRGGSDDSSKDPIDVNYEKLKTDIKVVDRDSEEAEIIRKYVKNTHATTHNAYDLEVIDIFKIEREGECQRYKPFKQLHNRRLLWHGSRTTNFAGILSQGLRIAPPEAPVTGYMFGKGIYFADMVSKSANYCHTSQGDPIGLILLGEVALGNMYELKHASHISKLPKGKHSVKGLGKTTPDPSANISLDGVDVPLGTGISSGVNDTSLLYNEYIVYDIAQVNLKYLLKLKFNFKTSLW

This assay concerns the target SIRT7 (endogenous) (human (endogenous in U2OS)) (UniProt Q9NRC8). As to the kind of experiment: co-IP; U2OS whole-cell lysate immunoprecipitated with antibodies against SIRT7, then immunoblotting; cells exposed to 6 Gy of IR or not.

On to “PARP1 (endogenous, U2OS) (from UniProt P09874 1-1014)”, for which the binding entry is listed as “binds”.

The record behind these values is paper PMC4961794.
